The target of the assay is Flag-PLEKHM1, Q9Y4G2. The assay can be described thus: co-IP; HEK293T cells transfected with Flag-PLEKHM1 and HA-VPS41, with HA-RILP or HA-RILPΔ199 co-expressed (attenuated by RILPΔ199); immunoprecipitated for Flag; lysis buffer 0.5% NP-40, 150 mM NaCl, pH 8.0. Particulars: remark: other sources report otherwise.

These are yes or no findings as the source states them, for the method shown. Binding seen in cells or lysates may run through a third protein. Some results given as binding are weak or reduced against the parent protein; the word gives no strength. Where a sequence is shown, tags or fusion partners need not be part of it.

B1: HA-VPS41, P49754 1-854 (protein)
chain: MAEAEEQETGSLEESTDESEEEESEEEPKLKYERLSNGVTEILQKDAASCMTVHDKFLALGTHYGKVYLLDVQGNITQKFDVSPVKINQISLDESGEHMGVCSEDGKVQVFGLYSGEEFHETFDCPIKIIAVHPHFVRSSCKQFVTGGKKLLLFERSWMNRWKSAVLHEGEGNIRSVKWRGHLIAWANNMGVKIFDIISKQRITNVPRDDISLRPDMYPCSLCWKDNVTLIIGWGTSVKVCSVKERHASEMRDLPSRYVEIVSQFETEFYISGLAPLCDQLVVLSYVKEISEKTEREYCARPRLDIIQPLSETCEEISSDALTVRGFQENECRDYHLEYSEGESLFYIVSPRDVVVAKERDQDDHIDWLLEKKKYEEALMAAEISQKNIKRHKILDIGLAYINHLVERGDYDIAARKCQKILGKNAALWEYEVYKFKEIGQLKAISPYLPRGDPVLKPLIYEMILHEFLESDYEGFATLIREWPGDLYNNSVIVQAVRDHLKKDSQNKTLLKTLAELYTYDKNYGNALEIYLTLRHKDVFQLIHKHNLFSSIKDKIVLLMDFDSEKAVDMLLDNEDKISIKKVVEELEDRPELQHVYLHKLFKRDHHKGQRYHEKQISLYAEYDRPNLLPFLRDSTHCPLEKALEICQQRNFVEETVYLLSRMGNSRSALKMIMEELHDVDKAIEFAKEQDDGELWEDLILYSIDKPPFITGLLNNIGTHVDPILLIHRIKEGMEIPNLRDSLVKILQDYNLQILLREGCKKILVADSLSLLKKMHRTQMKGVLVDEENICESCLSPILPSDAAKPFSVVVFHCRHMFHKECLPMPSMNSAAQFCNICSAKNRGPGSAILEMKK
With B1, the binding entry is on record as “binds”.

These data come from paper PMC4906411.
